Values from PubChem BioAssay AID686938 (Drosophila RNAi Screening Center, 2013).

Aim: 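Looking for CRAC channel components and the factors controlling them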 (primary screen)
Cells: Drosophila S2R+ cells
Reagent: long dsRNA against Drosophila genes, about 0.25 µg dsRNA per well, roughly 10,000 cells
Timing: 5 days of knock-down before the calcium assay
Conditions: thapsigargin (SERCA pump blocker) to empty calcium stores; entry signal taken 4 min after adding it
Read-out: 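Per-well fluo-4 fluorescence in two replicates, unnormalised, measured in resting cells and 4 min after store depletion by the SERCA blocker thapsigargin; ratio of the two present in few wells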
Scale: calcium entry signal: higher = stronger calcium signal after store depletion; entry to resting ratio: higher = more calcium entry relative to resting level; resting calcium signal: higher = higher resting calcium signal
Call rule: 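Hit if the duplicate-averaged plate z-score for entry over resting signal is under −3; wells with weak total dye signal (Fmax z < −2) or more than 5 off-targets removed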
Meaning of the calls: active = strongly reduced calcium entry; inactive = no strong reduction
The deposit covers about 23,000 reagents; below is an unselected part of those with a known target gene and a result. Over the whole deposit, 75 (0.33%) got an active call. 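Raw plate signals without normalisation; calls rest on plate z-scores that were not deposited; ratio present for only 364 wells.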 Not given: the dose of the treatment.

| target gene | calcium entry signal, replicate 1 (fluorescence units) | calcium entry signal, replicate 2 (fluorescence units) | entry to resting ratio | resting calcium signal, replicate 1 (fluorescence units) | resting calcium signal, replicate 2 (fluorescence units) | Outcome |
| --- | --- | --- | --- | --- | --- | --- |
| CG10903 | 4.14e7 | 2.56e7 | – | 2.31e7 | 1.40e7 | inactive |
| CG6321 | 4.37e7 | 3.66e7 | – | 2.78e7 | 1.42e7 | inactive |
| CG13362 | 5.01e7 | 4.62e7 | 2.1 | 2.41e7 | 2.06e7 | inactive |
| CG9577 | 4.47e7 | 3.30e7 | – | 2.34e7 | 1.63e7 | inactive |
| CG15395 | 3.30e7 | 3.45e7 | – | 1.54e7 | 1.59e7 | inactive |
| CG1824 | 2.83e7 | 4.51e7 | – | 1.41e7 | 2.04e7 | inactive |
| CG11099 | 4.82e7 | 5.32e7 | – | 2.11e7 | 2.29e7 | inactive |
| Rep (Rab escort protein) | 3.76e7 | 3.31e7 | – | 1.80e7 | 1.74e7 | inactive |
| CG42615 | 1.81e7 | 3.08e7 | – | 9.64e6 | 1.34e7 | inactive |
| TfIIEalpha (Transcription factor IIEalpha) | 4.38e7 | 2.96e7 | – | 3.54e7 | 1.44e7 | inactive |
| Bap60 (Brahma associated protein 60kD) | 4.98e7 | 4.66e7 | – | 3.02e7 | 2.96e7 | inactive |
| haf (hattifattener) | 3.82e7 | 5.41e7 | – | 1.94e7 | 2.04e7 | inactive |
| CG33096 | 4.84e7 | 4.09e7 | – | 2.22e7 | 1.72e7 | inactive |
| CG30395 | 2.06e7 | 3.55e7 | – | 9.22e6 | 1.38e7 | inactive |
| Rpt4R (Regulatory particle triple-A ATPase 4-related) | 3.15e7 | 3.98e7 | – | 1.63e7 | 1.89e7 | inactive |
| CG17821 | 5.23e7 | 5.82e7 | – | 2.22e7 | 2.71e7 | inactive |
| CG30340 | 3.37e7 | 4.82e7 | – | 1.67e7 | 2.16e7 | inactive |
| BomT2 (Bomanin Tailed 2) | 4.41e7 | 5.56e7 | – | 1.83e7 | 2.48e7 | inactive |
| CG2061 | 2.47e7 | 2.75e7 | – | 1.14e7 | 1.21e7 | inactive |
| Cpr97Ea (Cuticular protein 97Ea) | 3.23e7 | 5.42e7 | – | 1.70e7 | 2.35e7 | inactive |
| CG43098 | 4.54e7 | 3.55e7 | – | 2.13e7 | 1.66e7 | inactive |
| FANCI (Fanconi anemia complementation group I) | 3.61e7 | 2.78e7 | – | 1.66e7 | 1.56e7 | inactive |
| NdufA3 (NADH:ubiquinone oxidoreductase subunit A3) | 1.98e7 | 2.92e7 | – | 9.53e6 | 1.25e7 | inactive |
| CG12942 | 2.04e7 | 2.35e7 | – | 1.06e7 | 1.25e7 | inactive |
